Assay results published in PubChem BioAssay AID1259415 (National Center for Advancing Translational Sciences (NCATS), 2018).
The whole screen tested about 410,000 compounds, of which about 18,000 (4.4%) were called active. The shares of active, inactive and inconclusive entries below differ from those in the screen. Cut-off read from the data, not from the text of the source: active = activity change below about -60%; inconclusive = no clear call, values can overlap the other calls; inactive = above about -39%.

assay: qHTS Assay for inhibitors of the human cytomegalovirus (HCMV); details: HFF cells, HCMV-luciferase reporter, 72 h; at 57.5 µM; hits give low values
Method in brief: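 Compounds were evaluated in HFFs infected with an HCMV luciferase reporter virus (MOI 1 PFU/cell). Luciferase in lysates collected 72 h post infection served as the replication measure.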
% is set by controls: 0 for no effect and ±100 for the full control effect.

SMILES	activity change, negative = inhibition
O=C(NCc1ccccc1)c1c[nH]c2ccc(F)cc2c1=O	inconclusive: -47.9%
O=C(NCCCN1CCCC1=O)C(=O)NCC1OCCCN1S(=O)(=O)c1cc(F)ccc1F (stereo not drawn)	inconclusive: -44.9%
CCOC(=O)c1c(C)[nH]c(CCC(=O)NCCCN2CCN(c3cc(Cl)ccc3C)CC2)c1C	active: -96.6%
CC1OC(OC2C=C3CCC4C(CCC5(C)C(c6ccc(=O)oc6)CCC45O)C3(C)CC2)C(O)C(OC2OC(CO)C(O)C(O)C2O)C1O (stereo not drawn)	active: -97.4%
CCOc1cc(NC(=O)c2ccccc2C)c(OCC)cc1NC(=O)C1=Cc2ccccc2OC1	inconclusive: -50.4%
CCCCCc1c(-c2ccccc2OC)ncn1CCc1ccccc1OC	active: -83.2%
N#CC(C(=O)Nc1cccc(Cl)c1)=C1Nc2ccccc2N1	inconclusive: -57.2%
COc1nc(NCC(C)C)nc(Oc2ccc(OCc3ccccc3)nn2)n1	inactive: 2.21%
COc1ccc(C(=O)N(Cc2ccc(N(C)C)cc2)Cc2ccco2)cc1Cl	inconclusive: -46.4%
CC(C)Cn1c(SCC(=O)Nc2ccc(Cl)cc2F)nc(O)cc1=O	inconclusive: -43.3%
O=C(NCc1cccnc1)c1cc(Sc2ccc(F)cc2F)nc2ccccc12	active: -64.3%
COc1ccc(N(C(=O)c2snc(C(N)=O)c2N)C(C(=O)NCc2ccc(F)cc2)c2ccc(C)o2)c(OC)c1 (stereo not drawn)	inconclusive: -43.9%
COCCN1C(=O)CCC1(C)C(=O)NC1CCCCC1 (stereo not drawn)	inconclusive: -50.4%
O=C(CNC(=O)c1cccc(F)c1)N/N=C/c1cccs1	active: -62.2%
CC1(C(=O)NS(=O)(=O)c2cccc(C#N)c2)CCN1C(=O)C1(c2ccc(Cl)cc2)CCC1 (stereo not drawn)	inconclusive: -49.8%
CC(C)Cn1c(SCC(=O)N2CCCCC2)nc2ccccc2c1=O	inconclusive: -56.3%
COc1ccc(C)cc1S(=O)(=O)N(C)CC(=O)N1CCCCC1	inconclusive: -42.3%
COc1ccc(N2C(=O)NC(NC(=O)C(C)(C)C)(C(F)(F)F)C2=O)cc1 (stereo not drawn)	inconclusive: -43.4%
Cc1ccc(C)c(C(=O)COc2ccc(C)nc2[N+](=O)[O-])c1	inactive: 42.9%
C=CCn1c(C)cc(C(=O)COC(=O)/C=C/c2ccc(OC)cc2)c1C	inactive: 14.8%
Cc1[nH]n(S(=O)(=O)c2ccccc2)c(=O)c1N=Nc1cccc(Cl)c1	inactive: -19.2%
S=c1[nH]c2cnc(Cl)nc2[nH]1	active: -68.3%

SMILES	activity change, negative = inhibition
CC(C)NC(=O)C1CCN(C2CCN(Cc3cn[nH]c3-c3ccccc3)CC2)CC1	inconclusive: -53.7%
Cc1cccc(Cn2ccn(Cc3ccc(Cl)cc3)c(=O)c2=O)c1	active: -62.1%
CCN1/C(=C/c2cc[n+](C)cc2)C=Cc2cc(C)ccc21	active: -99.9%
CCS(=O)(=O)N1N=C(c2cccs2)CC1c1cc2cc(C)ccc2nc1Cl (stereo not drawn)	inconclusive: -45.1%
CC1CCCN(C(=O)/C(=C/c2ccco2)NC(=O)c2ccccc2)C1 (stereo not drawn)	inactive: 1.64%
Cc1ccc(CNc2oc(-c3ccco3)nc2C#N)cc1	inconclusive: -53.5%
O=C(NCC1CCCO1)c1cc(-c2ccccc2F)no1 (stereo not drawn)	inactive: 118%
COC1=CC(=O)OC(c2cccc(Cl)c2)C1 (stereo not drawn)	inactive: -32.1%
COc1ccc(NC(=S)NCCN2CCOCC2)c(OC)c1	inconclusive: -45%
CCCn1c(N)c(C(=O)CSc2nnc(Cc3cccs3)n2C2CC2)c(=O)n(C)c1=O	inconclusive: -54.5%
c1nc(N2CCC3(CC2)OCCO3)c2c3c(sc2n1)CCCC3	inconclusive: -58.9%
Cc1ccc(C(=O)CN(C(=O)c2ccc(Cl)c(Cl)c2)N2C(=O)C3C4C=CC(C4)C3C2=O)cc1 (stereo not drawn)	inconclusive: -42.5%
COc1cccc(CNC(=O)[C@@H]2CCCN2C(=O)[C@H]2CCCCN2C(=O)c2c(F)cccc2F)c1	inactive: 0.943%
O=C1C=C(N2CCCCC2)c2ccccc2C1=O	active: -97.1%
COc1ccc(OC)c(NC(=O)CSC2=C(C#N)C(c3ccco3)C3=C(CCCC3=O)N2)c1 (stereo not drawn)	inactive: -39.6%
Cc1ccc(-n2c(C)cc(C(=O)COc3c(CO)cc(F)cc3CO)c2C)cc1C	active: -91.7%
Cc1oc2cc3c(C(=O)N4CCCCC4)c(C)oc3cc2c1C(=O)N1CCCCC1	inconclusive: -52.5%
COC(=O)C(C)Sc1nc2c(c(=O)n(C)c(=O)n2C)n1CCC(C)C (stereo not drawn)	inconclusive: -47.7%
O=C(NN=C1CCN(Cc2ccccc2)CC1)c1ccccc1	inconclusive: -42%
CCOCCCNC(=O)CN1C(=O)COc2ccc(S(=O)(=O)N3CCCCCC3)cc21	inconclusive: -54.1%
CCOC(=O)Cc1csc(N/C(=N/S(=O)(=O)c2cc(Br)ccc2OCC)c2ccccc2)n1	inconclusive: -50.8%

Filtered by structure: the entries above containing fluorine.
SMILES	activity change, negative = inhibition
O=C(NCc1ccccc1)c1c[nH]c2ccc(F)cc2c1=O	inconclusive: -47.9%
O=C(NCCCN1CCCC1=O)C(=O)NCC1OCCCN1S(=O)(=O)c1cc(F)ccc1F (stereo not drawn)	inconclusive: -44.9%
CC(C)Cn1c(SCC(=O)Nc2ccc(Cl)cc2F)nc(O)cc1=O	inconclusive: -43.3%
O=C(NCc1cccnc1)c1cc(Sc2ccc(F)cc2F)nc2ccccc12	active: -64.3%
COc1ccc(N(C(=O)c2snc(C(N)=O)c2N)C(C(=O)NCc2ccc(F)cc2)c2ccc(C)o2)c(OC)c1 (stereo not drawn)	inconclusive: -43.9%
O=C(CNC(=O)c1cccc(F)c1)N/N=C/c1cccs1	active: -62.2%
COc1ccc(N2C(=O)NC(NC(=O)C(C)(C)C)(C(F)(F)F)C2=O)cc1 (stereo not drawn)	inconclusive: -43.4%
O=C(NCC1CCCO1)c1cc(-c2ccccc2F)no1 (stereo not drawn)	inactive: 118%
COc1cccc(CNC(=O)[C@@H]2CCCN2C(=O)[C@H]2CCCCN2C(=O)c2c(F)cccc2F)c1	inactive: 0.943%
Cc1ccc(-n2c(C)cc(C(=O)COc3c(CO)cc(F)cc3CO)c2C)cc1C	active: -91.7%
